Results are given in words; binding and its absence hold for the method and conditions named. Some entries that bind do so weakly or less than the wild type. Tags and fused reporters may be left off the sequences shown.
T1: AUTOPHAGY8 isoform ATG8f, Gal4BD fusion (Arabidopsis thaliana) (UniProt Q8VYK7)
T1 sequence: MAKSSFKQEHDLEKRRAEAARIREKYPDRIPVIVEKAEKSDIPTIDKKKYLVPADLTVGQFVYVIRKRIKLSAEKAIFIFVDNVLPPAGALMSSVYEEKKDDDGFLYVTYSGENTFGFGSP

B1: ATG8 Interacting Protein 2 (ATI2), Gal4AD fusion (protein, UniProt Q8VY98 1-266)
chain: MADKDEAATRGNDWEVVSLTASAYAAAPGPKPVVDSKDDDHKEVTPCYEAETSHPLYMSRHFVFPPTGQLENTSDLTEASLTGSHCKEGSDLSLKGLDLSDDFGGLEFSEDKGKKEENIYTTAMSSLDDERAIGGSHVYEPVEEPTEPVSPSDVTLDLNPIKDDEVANSPPSEEAWWKRSVASLIAQAKETNTVWSICIAAAVMGIVILGQHWQQERWQILQQKWESSIGNEKAGRLMGPISRLKQAFVGGQRRDSFIRASAQNDR
B2: ATI2 mutated in the C-terminal putative AIM (ATI2-AIM W218A/L221A), Gal4AD fusion (protein, UniProt Q8VY98 1-266)
chain: MADKDEAATRGNDWEVVSLTASAYAAAPGPKPVVDSKDDDHKEVTPCYEAETSHPLYMSRHFVFPPTGQLENTSDLTEASLTGSHCKEGSDLSLKGLDLSDDFGGLEFSEDKGKKEENIYTTAMSSLDDERAIGGSHVYEPVEEPTEPVSPSDVTLDLNPIKDDEVANSPPSEEAWWKRSVASLIAQAKETNTVWSICIAAAVMGIVILGQHWQQERAQIAQQKWESSIGNEKAGRLMGPISRLKQAFVGGQRRDSFIRASAQNDR
B3: ATI2 mutated in the N-terminal putative AIM (ATI2-AIM W14A/V17A), Gal4AD fusion (protein, UniProt Q8VY98 1-266)
chain: MADKDEAATRGNDAEVASLTASAYAAAPGPKPVVDSKDDDHKEVTPCYEAETSHPLYMSRHFVFPPTGQLENTSDLTEASLTGSHCKEGSDLSLKGLDLSDDFGGLEFSEDKGKKEENIYTTAMSSLDDERAIGGSHVYEPVEEPTEPVSPSDVTLDLNPIKDDEVANSPPSEEAWWKRSVASLIAQAKETNTVWSICIAAAVMGIVILGQHWQQERWQILQQKWESSIGNEKAGRLMGPISRLKQAFVGGQRRDSFIRASAQNDR

Each binder was assayed against T1, AUTOPHAGY8 isoform ATG8f, Gal4BD fusion (Arabidopsis thaliana) (assay: two-hybrid).

Binder | binding
B1 | binds
B2 | binds
B3 | no binding
